Assay results published in PubChem BioAssay AID540276 (National Center for Advancing Translational Sciences (NCATS), 2011).
The campaign covered roughly 300,000 compounds. About 5,400 (1.8%) were called active. Inconclusive results, whose numbers are uncertain, are shown with a selection of clear calls. The call rests on the fitted dose curve; tested in HEK293 cells. Potencies beside an inconclusive call are fits to weak or partial responses and may not hold up.

assay: qHTS for inhibitors of binding or entry into cells for Marburg Virus; conditions: Marburg virus pseudotyped entry inhibition, cell reporter; activity change, negative = inhibition: at 37.8 µM (top of the series) unless noted
On the % scale 0 is the no-effect control and ±100 the full control effect; potency means the concentration at half of the fitted maximal effect.

Row | SMILES | activity change, negative = inhibition | Potency
1 | CCn1nc(C)c(CNC(=O)Nc2ccc3c(c2)OCO3)c1C | inactive: 0.563% | –
2 | CCOc1ccc(-c2nnc(SCC(=O)NCc3ccccc3Cl)o2)cc1 | inactive: 0.993% [at 46.1 µM] | –
3 | CCOC(=O)c1ccc(NC(=O)c2ccc(CN3CCOCC3)cc2)cc1 | – | inconclusive: 35.5 µM [inhibitor, partial curve, poor fit]
4 | O=C(C1CCC1)N1CCN(S(=O)(=O)c2cc(F)ccc2F)CC1 | inactive: -2.13% | –
5 | COc1ccc(/C=C(\NC(=O)c2ccccc2)C(=O)NCCN2CCOCC2)cc1 | – | inconclusive: 12.6 µM [activator, partial curve, poor fit]
6 | CCCN1C(=O)c2[nH]nc(-c3ccccc3)c2C1c1cccc(O)c1 (stereo not drawn) | – | inconclusive: 6.31 µM [inhibitor, single point]
7 | COc1ccc(NS(=O)(=O)c2cccc(C(=O)NCC3CCCO3)c2)cc1 (stereo not drawn) | – | inconclusive: 11.2 µM [inhibitor, partial curve, poor fit]
8 | COCC(C)NC(C(=O)Nc1ccc(C)c(Cl)c1)c1ccccc1 (stereo not drawn) | – | inconclusive: 32.6 µM [inhibitor, partial curve, poor fit]
9 | COc1ccc(-n2c(=S)[nH]c3c(sc(=S)n3-c3ccccc3)c2=O)c(OC)c1 | inactive: -9.59% | –
10 | C=CCN(C(=O)c1cccc(C(F)(F)F)c1)C1(C(=O)Nc2ccccc2)CCN(C(C)C)CC1 | – | inconclusive: 17.8 µM [inhibitor, partial curve, poor fit]
11 | CC(=O)C1=C(O)C(=O)N(c2ccc(Br)cn2)C1c1ccccc1F (stereo not drawn) | – | inconclusive: 6.31 µM [inhibitor, single point]
12 | ClCCN(CCCl)c1ccc(C=Cc2ccncn2)cc1 | – | inconclusive: 17.8 µM [inhibitor, single point]
13 | O=C(COC(=O)C1CCN(S(=O)(=O)c2cccc3cccnc23)CC1)c1ccc(F)cc1 | – | inconclusive: 5.62 µM [activator, single point]
14 | CC(=Nc1ccccc1)C1=C(O)CSC1=O | inactive: 6.85% | –
15 | Fc1ccc(Nc2nc(Oc3ccccc3F)nc(N3CCCC3)n2)cc1 | – | inconclusive: 18.3 µM [inhibitor, partial curve]
16 | CCCCOc1ccc(NC(=O)CSCC(=O)OCC)cc1 | – | inconclusive: 1.3 µM [inhibitor, partial curve, poor fit]
17 | COc1ccc(OC)c2sc(N(CCN(C)C)C(=O)c3ccc4ccccc4c3)nc12 | – | inconclusive: 35.5 µM [inhibitor, single point]
18 | Cc1cccc(NC(=O)CN2C(=O)C(c3ccccc3)=NC23CCC(C)CC3)c1 (stereo not drawn) | – | inconclusive: 35.5 µM [inhibitor, single point]
19 | O=C(COC(=O)C12CC3CC(CC(C3)C1)C2)Nc1ccc([N+](=O)[O-])cc1Cl | – | inconclusive: 3.16 µM [activator, full curve, poor fit]
20 | COc1ccc(C(CC(=O)O)NC(=O)C2CCCCC2)cc1 (stereo not drawn) | – | inconclusive: 29.1 µM [activator, single point]
21 | Cc1ccc(-c2nn(-c3ccc(F)cc3)cc2C(=O)NCC(c2cccs2)N2CCOCC2)cc1 (stereo not drawn) | inactive: -10.9% [at 46.1 µM] | –
22 | Clc1ccc(OCc2nnc3n2N=C(c2ccc4c(c2)OCCO4)CS3)c(Cl)c1 | – | inconclusive: 18.3 µM [inhibitor, single point]
23 | COc1ccc(C(C(=O)NC2CCCCC2)N(C(=O)CCl)c2ccc(OC)cc2)cc1 (stereo not drawn) | inactive: -14.5% | –

Row | SMILES | activity change, negative = inhibition | Potency
24 | CN1C(=O)C(=Cc2ccccc2OCc2ccc(Cl)cc2)C(=O)N(C)C1=O | – | inconclusive: 11.2 µM [activator, partial curve, poor fit]
25 | COc1ccc(-c2cc(C(F)(F)F)nc(N3CCN(C)CC3)n2)cc1 | – | inconclusive: 29.1 µM [inhibitor, single point]
26 | Cc1cc(C)c(C(=O)N(CCN(C)C)CC2CCCN(Cc3ccccc3F)C2)o1 (stereo not drawn) | – | inconclusive: 14.1 µM [inhibitor, single point]
27 | CC12CC(NC(=O)N1c1cccc(C(=O)Nc3ncn[nH]3)c1)c1ccccc1O2 (stereo not drawn) | – | inconclusive: 35.5 µM [inhibitor, single point]
28 | CCOC(=O)c1nnn(CC(=O)N2N=C(c3cccc4ccccc34)CC2c2ccccc2)c1C(=O)OCC (stereo not drawn) | – | inconclusive: 14.6 µM [inhibitor, partial curve, poor fit]
29 | COC(=O)Nc1nnc(CCc2ccccc2)s1 | – | inconclusive: 0.355 µM [activator, partial curve, poor fit]
30 | COc1cc(OC)cc(C(=O)Nc2cc3c(cc2N2CCOCC2)n(C)c(=O)n3C)c1 | inactive: -6.68% [at 46.1 µM] | –
31 | CNCCc1ccccn1 | inactive: 5.26% | –
32 | O=C(Nc1ccc2nsnc2c1)c1ccc2c(c1)OCO2 | – | inconclusive: 0.13 µM [activator, full curve, poor fit]
33 | CC1(C)Cc2cccc(OCC(=O)NC3CC3)c2O1 | inactive: -1.36% | –
34 | COc1ccc(C)cc1NC(=O)C(C)N1CCOCC1 (stereo not drawn) | inactive: 4.55% [at 46.1 µM] | –
35 | CCOc1ccc(C2=NC(c3cccs3)=Nc3ccc(CC)cc3N2)cc1OCC | – | inconclusive: 11.2 µM [inhibitor, partial curve, poor fit]
36 | CSCCOC(=O)C1=C(C)Nc2ccc(C)cc2S1 | inactive: 8.21% | –
37 | CCN1CCN(c2ccc(S(=O)(=O)N3CCCCC3)cc2NC(=O)c2cccc(C)c2)CC1 | – | inconclusive: 35.5 µM [inhibitor, single point]
38 | CC1C(=O)N(Cc2ccc([N+](=O)[O-])cc2)c2ccccc2N1C(=O)C1CC1 (stereo not drawn) | inactive: -19.5% [at 46.1 µM] | –
39 | O=C(NCCN1CCCC1)c1ccc(Cn2c(=S)[nH]c3cc4c(cc3c2=O)OCO4)cc1 | – | inconclusive: 29.1 µM [inhibitor, single point]
40 | CSc1ccccc1C(=O)N(C)C(c1ccccc1)c1ccccc1 | – | inconclusive: 3.55 µM [inhibitor, partial curve, poor fit]
41 | Cc1[nH]c2ccc(Br)cc2c1CCNC(=O)c1cc2ccccc2oc1=O | inactive: -0.496% [at 46.1 µM] | –
42 | Cc1ccc(S(=O)(=O)N2CCN(C(=O)CCOc3ccccc3C)CC2)cc1C | – | inconclusive: 35.5 µM [inhibitor, single point]
43 | OCCSc1nc(N2CCOCC2)nc(N2CCOCC2)n1 | – | inconclusive: 8.91 µM [inhibitor, partial curve, poor fit]
44 | C=CCn1c(Cc2ccccc2)n[nH]c1=S | inactive: 5.44% [at 46.1 µM] | –
45 | CCOC(=O)C1CCCN(S(=O)(=O)c2c(C)noc2C)C1 (stereo not drawn) | – | inconclusive: 8.91 µM [activator, partial curve]
46 | Cc1ccc(C(=O)NCc2nnc(SCC(=O)NC(C)c3ccccc3)n2C)cc1 (stereo not drawn) | inconclusive: 2.15% [activator] [at 46.1 µM] | –

Row | SMILES | activity change, negative = inhibition | Potency
47 | Cc1ccc(-c2ccc(CCC(=O)O)n2NC(=O)c2cccs2)cc1 | – | inconclusive: 0.316 µM [inhibitor, partial curve, poor fit]
48 | Cc1cc(C)c(C(=O)c2cccs2)c(C)c1 | inactive: 1.01% [at 46.1 µM] | –
49 | O=C(NCc1ccccc1)c1cccc(COc2ccccc2Cl)c1 | – | inconclusive: 35.5 µM [inhibitor, single point]
50 | O=C(NCCOc1ccccc1)c1ccc2c(c1)OCO2 | – | inconclusive: 4.61 µM [inhibitor, full curve, poor fit]
51 | O=C(NC1CCN(C(=O)NC2CCCCC2)CC1)c1ccco1 | – | inconclusive: 0.82 µM [inhibitor, partial curve, poor fit]
52 | CCC(C(=O)Nc1cccc(S(=O)(=O)N(C)c2ccccc2)c1)c1ccccc1 (stereo not drawn) | – | inconclusive: 35.5 µM [inhibitor, single point]
53 | Cn1cc(CN(CCCN2CCOCC2)C(=S)Nc2cccc(Cl)c2)c2ccccc21 | – | inconclusive: 35.5 µM [inhibitor, single point]
54 | NC(=O)C1CCN(C(c2ccccc2Cl)c2nnnn2CC2CCCO2)CC1 (stereo not drawn) | – | inconclusive: 6.31 µM [inhibitor, single point]
55 | Clc1ccccc1C1=NCc2nncn2-c2sc(Br)cc21 | – | inconclusive: 10 µM [inhibitor, partial curve, poor fit]
56 | Cc1ccc(N=Nc2c(O)[nH]c3ccc(F)cc23)cc1 | – | inconclusive: 3.98 µM [activator, partial curve, poor fit]
57 | CCCCn1c(N)c(N(CCC(C)C)C(=O)CN2C(=O)C3CCCCC3C2=O)c(=O)[nH]c1=O (stereo not drawn) | inactive: -7.2% | –
58 | CCC(C)(C)NC(=O)C(c1ccc(OC)cc1)N(Cc1cccs1)C(=O)CCC(=O)Nc1cc(C)on1 (stereo not drawn) | – | inconclusive: 3.98 µM [inhibitor, full curve, poor fit]
59 | Cc1cc(OCC(=O)NC2CCN(Cc3ccccc3)CC2)c2c(C)cc(=O)oc2c1 | – | inconclusive: 7.94 µM [inhibitor, partial curve, poor fit]
60 | CCOc1ccc(CCNC(=O)CSCC(=O)Nc2cccc(C)c2)cc1OCC | inactive: -11.9% | –
61 | O=C(NCCN1CCCCC1)Nc1ccc(F)cc1F | – | inconclusive: 15.8 µM [activator, partial curve, poor fit]
62 | Cc1csc(NC(=O)c2c(O)c3c(n(CC(C)C)c2=O)CCCC3)n1 | – | inconclusive: 35.5 µM [inhibitor, single point]
63 | O=C(CSc1nnc(NC(=O)c2ccco2)s1)Nc1ccc(F)cc1F | inactive: 4.27% | –
64 | O=[N+]([O-])c1ccc(NNC(=S)Nc2ccccc2)cc1 | – | inconclusive: 35.5 µM [inhibitor, single point]
65 | COc1ccccc1NC(=O)c1nn(C)c(C(=O)Nc2ccccc2OC)c1[N+](=O)[O-] | – | inconclusive: 6.31 µM [inhibitor, single point]
66 | Cc1ccc2cc([N+](=O)[O-])ccc2n1 | inactive: 22.2% [at 46.1 µM] | –
67 | CN(C)S(=O)(=O)c1ccc(NC(=O)c2ccc(Br)o2)cc1 | inactive: 0.761% | –
68 | c1ccc(Oc2nc(Oc3ccccc3)nc(N3CCOCC3)n2)cc1 | – | inconclusive: 8.91 µM [inhibitor, partial curve, poor fit]
